The supplement of paper PMC8728848
This is one part of the list.

Columns and labels:
Experiment in all cases: glycan array binding signal (z-score within array); higher = stronger binding
Conditions in all cases: glycan notation: IUPAC condensed, linker removed
[1] = molecular target: Gal(b1-3)GlcNAc(b1-2)Man(a1-3)[Gal(b1-3)GlcNAc(b1-2)Man(a1-6)]Man(b1-4)GlcNAc(b1-4)GlcNAc
Summary of the method: (§1)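 Arrays were curated from the Consortium for Functional Glycomics database, 3228 in total, and kept only where the protein sequence was available. Binding is expressed as a within-array Z-score. This score was averaged across arrays of the same protein sequence at different concentrations or buffers and across linkers, and negative values can be read as non-binding.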

[2] = molecular target: Gal(b1-3)GlcNAc(b1-2)Man(a1-3)[Gal(b1-3)GlcNAc(b1-2)Man(a1-6)]Man(b1-4)GlcNAc(b1-4)[Fuc(a1-6)]GlcNAc
Summary of the method: as §1

[3] = molecular target: Gal(b1-3)GlcNAc(b1-2)Man(a1-3)[GlcNAc(b1-4)][Gal(b1-3)GlcNAc(b1-2)Man(a1-6)]Man(b1-4)GlcNAc(b1-4)GlcNAc
Summary of the method: as §1

[4] = molecular target: Gal(b1-3)GlcNAc(b1-2)[Gal(b1-3)GlcNAc(b1-6)]Man(a1-6)[Gal(b1-3)GlcNAc(b1-2)Man(a1-3)]Man(b1-4)GlcNAc(b1-4)GlcNAc
Summary of the method: as §1

[5] = molecular target: Gal(b1-3)GlcNAc(b1-3)Gal(b1-3)GlcNAc
Summary of the method: as §1

[6] = molecular target: Gal(b1-3)GlcNAc(b1-3)Gal(b1-4)Glc
Summary of the method: as §1

[7] = molecular target: Gal(b1-3)GlcNAc(b1-3)Gal(b1-4)GlcNAc
Summary of the method: as §1

[8] = molecular target: Gal(b1-3)GlcNAc(b1-3)Gal(b1-4)GlcNAc(b1-2)Man(a1-3)[Gal(b1-3)GlcNAc(b1-3)Gal(b1-4)GlcNAc(b1-2)Man(a1-6)]Man(b1-4)GlcNAc(b1-4)GlcNAc
Summary of the method: as §1

[9] = molecular target: Gal(b1-3)GlcNAc(b1-3)Gal(b1-4)GlcNAc(b1-2)[Gal(b1-3)GlcNAc(b1-3)Gal(b1-4)GlcNAc(b1-6)]Man(a1-6)[Gal(b1-3)GlcNAc(b1-3)Gal(b1-4)GlcNAc(b1-2)Man(a1-3)]Man(b1-4)GlcNAc(b1-4)[Fuc(a1-6)]GlcNAc
Summary of the method: as §1

[10] = molecular target: Gal(b1-3)GlcNAc(b1-3)Gal(b1-4)GlcNAc(b1-3)Gal(b1-4)GlcNAc(b1-2)[Gal(b1-3)GlcNAc(b1-3)Gal(b1-4)GlcNAc(b1-3)Gal(b1-4)GlcNAc(b1-6)]Man(a1-6)[Gal(b1-3)GlcNAc(b1-3)Gal(b1-4)GlcNAc(b1-3)Gal(b1-4)GlcNAc(b1-2)Man(a1-3)]Man(b1-4)GlcNAc(b1-4)[Fuc(a1-6)]GlcNAc
Summary of the method: as §1

[11] = molecular target: Gal(b1-3)GlcNAc(b1-3)Gal(b1-4)GlcNAc(b1-6)[Gal(b1-3)GlcNAc(b1-3)]Gal(b1-4)Glc
Summary of the method: as §1

[12] = molecular target: Gal(b1-3)GlcNAc(b1-3)Gal(b1-4)[Fuc(a1-3)]GlcNAc
Summary of the method: as §1

[13] = molecular target: Gal(b1-3)GlcNAc(b1-3)Gal(b1-4)[Fuc(a1-3)]GlcNAc(b1-6)[Gal(b1-3)GlcNAc(b1-3)]Gal(b1-4)Glc
Summary of the method: as §1

[14] = molecular target: Gal(b1-3)GlcNAc(b1-3)GalNAc
Summary of the method: as §1

[15] = molecular target: Gal(b1-3)GlcNAc(b1-6)Gal(b1-4)GlcNAc
Summary of the method: as §1

[16] = molecular target: Gal(b1-3)GlcNAc(b1-6)GalNAc
Summary of the method: as §1

[17] = molecular target: Gal(b1-3)GlcNAc(b1-6)[Gal(b1-3)]GalNAc
Summary of the method: as §1

Gal(b1-3)GlcNAc6S = molecular target: Gal(b1-3)GlcNAc6S
Summary of the method: as §1

[18] = molecular target: Gal(b1-3)[Fuc(a1-4)]GlcNAc
Summary of the method: as §1

[19] = molecular target: Gal(b1-3)[Fuc(a1-4)]GlcNAc(b1-2)Man
Summary of the method: as §1

[20] = molecular target: Gal(b1-3)[Fuc(a1-4)]GlcNAc(b1-2)Man(a1-3)[Gal(b1-3)[Fuc(a1-4)]GlcNAc(b1-2)Man(a1-6)]Man(b1-4)GlcNAc(b1-4)[Fuc(a1-6)]GlcNAc
Summary of the method: as §1

[21] = molecular target: Gal(b1-3)[Fuc(a1-4)]GlcNAc(b1-3)Gal(b1-3)[Fuc(a1-4)]GlcNAc
Summary of the method: as §1

[22] = molecular target: Gal(b1-3)[Fuc(a1-4)]GlcNAc(b1-3)Gal(b1-4)[Fuc(a1-3)]GlcNAc
Summary of the method: as §1

[23] = molecular target: Gal(b1-3)[Fuc(a1-4)]GlcNAc(b1-6)GalNAc
Summary of the method: as §1

[24] = molecular target: Gal(b1-3)[GlcNAc(b1-6)]GalNAc
Summary of the method: as §1

[25] = molecular target: Gal(b1-3)[Neu5Ac(a2-6)]GalNAc
Summary of the method: as §1

[26] = molecular target: Gal(b1-3)[Neu5Ac(a2-6)]GlcNAc(b1-4)Gal(b1-4)Glc
Summary of the method: as §1

[27] = molecular target: Gal(b1-3)[Neu5Ac(b2-6)]GalNAc
Summary of the method: as §1

Gal(b1-4)Gal = molecular target: Gal(b1-4)Gal
Summary of the method: as §1

[28] = molecular target: Gal(b1-4)GalNAc(a1-3)[Fuc(a1-2)]Gal(b1-4)GlcNAc
Summary of the method: as §1

[29] = molecular target: Gal(b1-4)GalNAc(b1-3)[Fuc(a1-2)]Gal(b1-4)GlcNAc
Summary of the method: as §1

Gal(b1-4)Glc = molecular target: Gal(b1-4)Glc
Summary of the method: as §1

Gal(b1-4)Glc6S = molecular target: Gal(b1-4)Glc6S
Summary of the method: as §1

Gal(b1-4)GlcNAc = molecular target: Gal(b1-4)GlcNAc
Summary of the method: as §1

[30] = molecular target: Gal(b1-4)GlcNAc(a1-6)Gal(b1-4)GlcNAc
Summary of the method: as §1

Gal(b1-4)GlcNAc(b1-2)Man = molecular target: Gal(b1-4)GlcNAc(b1-2)Man
Summary of the method: as §1

[31] = molecular target: Gal(b1-4)GlcNAc(b1-2)Man(a1-3)Man(b1-4)GlcNAc(b1-4)GlcNAc
Summary of the method: as §1

[32] = molecular target: Gal(b1-4)GlcNAc(b1-2)Man(a1-3)[Gal(b1-4)GlcNAc(b1-2)Man(a1-6)]Man(b1-4)GlcNAc(b1-4)GlcNAc
Summary of the method: as §1

[33] = molecular target: Gal(b1-4)GlcNAc(b1-2)Man(a1-3)[Gal(b1-4)GlcNAc(b1-2)Man(a1-6)]Man(b1-4)GlcNAc(b1-4)[Fuc(a1-6)]GlcNAc
Summary of the method: as §1

[34] = molecular target: Gal(b1-4)GlcNAc(b1-2)Man(a1-3)[Gal(b1-4)GlcNAc(b1-2)Man(a1-6)][Gal(b1-4)GlcNAc(b1-4)]Man(b1-4)GlcNAc(b1-4)[Fuc(a1-6)]GlcNAc
Summary of the method: as §1

[35] = molecular target: Gal(b1-4)GlcNAc(b1-2)Man(a1-3)[Gal(b1-4)GlcNAc(b1-2)Man(a1-6)][GlcNAc(b1-4)]Man(b1-4)GlcNAc(b1-4)[Fuc(a1-6)]GlcNAc
Summary of the method: as §1

[36] = molecular target: Gal(b1-4)GlcNAc(b1-2)Man(a1-3)[GlcNAc(b1-2)Man(a1-6)]Man(b1-4)GlcNAc(b1-4)GlcNAc
Summary of the method: as §1

[37] = molecular target: Gal(b1-4)GlcNAc(b1-2)Man(a1-3)[GlcNAc(b1-4)][Gal(b1-4)GlcNAc(b1-2)Man(a1-6)]Man(b1-4)GlcNAc(b1-4)GlcNAc
Summary of the method: as §1

[38] = molecular target: Gal(b1-4)GlcNAc(b1-2)Man(a1-3)[Man(a1-6)]Man(b1-4)GlcNAc(b1-4)GlcNAc
Summary of the method: as §1

[39] = molecular target: Gal(b1-4)GlcNAc(b1-2)Man(a1-6)Man(b1-4)GlcNAc(b1-4)GlcNAc
Summary of the method: as §1

B1: RsaA-N-term (Caulobacter crescentus), P35828 (protein)
chain: MAYTTAQLVTAYTNANLGKAPDAATTLTLDAYATQTQTGGLSDAAALTNTLKLVNSTTAVAIQTYQFFTGVAPSAAGLDFLVDSTTNTNDLNDAYYSKFAQENRFINFSINLATGAGAGATAFAAAYTGVSYAQTVATAYDKIIGNAVATAAGVDVAAAVAFLSRQANIDYLTAFVRANTPFTAAADIDLAVKAALIGTILNAATVSGIGGYATATAAMINDLSDGALSTDNAAGVNLFTAYPSSGVSGSTLSLTTGTDTLTGTANNDTFVAGEVAGDGSGWSHPQFEKGG
glycan array binding signal (z-score) [1]: 0.96 | glycan array binding signal (z-score) [2]: -0.118 | glycan array binding signal (z-score) [3]: 1.77 | glycan array binding signal (z-score) [4]: 0.045 | glycan array binding signal (z-score) [5]: -1.48 | glycan array binding signal (z-score) [6]: -0.55 | glycan array binding signal (z-score) [7]: 0.211 | glycan array binding signal (z-score) [8]: 0.124 | glycan array binding signal (z-score) [9]: 0.788 | glycan array binding signal (z-score) [10]: 0.909 | glycan array binding signal (z-score) [11]: -1.44 | glycan array binding signal (z-score) [12]: 0.064 | glycan array binding signal (z-score) [13]: -0.531 | glycan array binding signal (z-score) [14]: 1.8 | glycan array binding signal (z-score) [15]: 0.088 | glycan array binding signal (z-score) [16]: 0.291 | glycan array binding signal (z-score) [17]: -0.25 | glycan array binding signal (z-score) (Gal(b1-3)GlcNAc6S): -1.06 | glycan array binding signal (z-score) [18]: -0.254 | glycan array binding signal (z-score) [19]: 2.17 | glycan array binding signal (z-score) [20]: 0.463 | glycan array binding signal (z-score) [21]: 0.149 | glycan array binding signal (z-score) [22]: -1.17 | glycan array binding signal (z-score) [23]: -1.19 | glycan array binding signal (z-score) [24]: -0.825 | glycan array binding signal (z-score) [25]: -0.329 | glycan array binding signal (z-score) [26]: -0.54 | glycan array binding signal (z-score) [27]: 0.215 | glycan array binding signal (z-score) (Gal(b1-4)Gal): -0.075 | glycan array binding signal (z-score) [28]: -0.122 | glycan array binding signal (z-score) [29]: 0.297 | glycan array binding signal (z-score) (Gal(b1-4)Glc): -0.545 | glycan array binding signal (z-score) (Gal(b1-4)Glc6S): -0.918 | glycan array binding signal (z-score) (Gal(b1-4)GlcNAc): -0.339 | glycan array binding signal (z-score) [30]: 1.12 | glycan array binding signal (z-score) (Gal(b1-4)GlcNAc(b1-2)Man): -0.545 | glycan array binding signal (z-score) [31]: 1.23 | glycan array binding signal (z-score) [32]: -0.966 | glycan array binding signal (z-score) [33]: -0.269 | glycan array binding signal (z-score) [34]: -0.705 | glycan array binding signal (z-score) [35]: -0.708 | glycan array binding signal (z-score) [36]: -0.671 | glycan array binding signal (z-score) [37]: -1.29 | glycan array binding signal (z-score) [38]: 0.423 | glycan array binding signal (z-score) [39]: -0.473
